According to PubChem BioAssay AID248 (DTP/NCI, 2004):
The list is a part of this screen's results and no random one: it is rich in T/C values a quarter to a half above the control, in often repeated tests (any T/C) and in doses without a T/C. Other doses and runs of a compound stand elsewhere. T/C gives the treated animals as a percentage of the vehicle group. For survival time, this PubChem deposit counts one and a half times the control or more as active, and values a quarter to a half above the control carry no call in these data; other NCI protocols may use other cut-offs. Schedule codes are those of the source, read here as Q, the interval in days (D) or hours (H), X, the number of doses. Some T/C values are followed by the survivors on the day toxicity was checked, most often the fifth; without a count, all were alive then. Some entries hold several experiments; the results are listed from low to high. Signs of the kind (2×) give the number of equal values in this list. Some schedules carry Z or #; the key to these is not given.

Tested on: L1210 leukemia ip in BDF1 mice, survival T/C
Test: NCI In Vivo Anticancer Drug Screen. Data for tumor model L1210 Leukemia (intraperitoneal) in B6D2F1 (BDF1) mice
Conditions: T/C endpoint: mean survival time, higher T/C = longer survival

`CN(C)/N=N/c1nc[nH]c1C(N)=O` was tested, and the T/C (dose: 3.75 mg/kg/injection, schedule: Q01DX009 (ip), vehicle: saline with Tween-80) was 134 % of control, the T/C (dose: 11.4 mg/kg/injection, schedule: Q01DX009 (ip), vehicle: saline with Tween-80, evaluated on day 5) was 105 and 116 % of control and the T/C (dose: 11.4 mg/kg/injection, schedule: Q01DX009 (ip), vehicle: saline with Tween-80, evaluated on day 60) was 105 and 116 % of control. The T/C (dose: 12.5 mg/kg/injection, schedule: Q01DX Z (ip), vehicle: saline) was 128 % of control, the T/C (dose: 12.5 mg/kg/injection, schedule: Q#A X Z (ip), vehicle: carboxymethylcellulose (CMC)) was 134 % of control and the T/C (dose: 18.0 mg/kg/injection, schedule: Q01DX Z (ip), vehicle: carboxymethylcellulose (CMC)) was 125 % of control. The T/C (dose: 21.0 mg/kg/injection, schedule: Q01DX015 (ip), vehicle: carboxymethylcellulose (CMC), evaluated on day 5) was 105 and 106 % of control, the T/C (dose: 21.0 mg/kg/injection, schedule: Q01DX015 (ip), vehicle: carboxymethylcellulose (CMC), evaluated on day 45) was 105 and 106 % of control and the T/C (dose: 22.7 mg/kg/injection, schedule: Q01DX009 (ip), vehicle: saline with Tween-80, evaluated on day 5) was 114 and 164 % of control. The T/C (dose: 22.7 mg/kg/injection, schedule: Q01DX009 (ip), vehicle: saline with Tween-80, evaluated on day 60) was 114 and 164 % of control, the T/C (dose: 25.0 mg/kg/injection, schedule: Q01DX009 (ip), vehicle: carboxymethylcellulose (CMC)) was 107, 117, 119, 124 % of control and the T/C (dose: 25.0 mg/kg/injection, schedule: Q01DX009 (ip), vehicle: saline with Tween-80) was 134 % of control. For the same compound, the T/C (dose: 25.0 mg/kg/injection, schedule: Q01DX Z (im), vehicle: carboxymethylcellulose (CMC)) was 130 % of control, the T/C (dose: 25.0 mg/kg/injection, schedule: Q01DX Z (ip), vehicle: carboxymethylcellulose (CMC)) was 140 % of control and the T/C (dose: 25.0 mg/kg/injection, schedule: Q01DX Z (sc), vehicle: carboxymethylcellulose (CMC)) was 128 % of control. The T/C (dose: 25.0 mg/kg/injection, schedule: Q#A X034 (ip), vehicle: carboxymethylcellulose (CMC)) was 126 % of control, the T/C (dose: 25.0 mg/kg/injection, schedule: Q#A X Z (ip), vehicle: carboxymethylcellulose (CMC)) was 130 and 146 % of control [4 of 6 alive] and the T/C (dose: 32.0 mg/kg/injection, schedule: Q01DX015 (ip), vehicle: carboxymethylcellulose (CMC), evaluated on day 5) was 104 and 118 % of control. For the same compound, the T/C (dose: 32.0 mg/kg/injection, schedule: Q01DX015 (ip), vehicle: carboxymethylcellulose (CMC), evaluated on day 45) was 104 and 118 % of control, the T/C (dose: 37.5 mg/kg/injection, schedule: Q01DX Z (ip), vehicle: carboxymethylcellulose (CMC)) was 127 % of control and the T/C (dose: 39.0 mg/kg/injection, schedule: Q01DX019 (ip), vehicle: steroid suspending solution, evaluated on day 5) was 134 % of control. The T/C (dose: 39.0 mg/kg/injection, schedule: Q01DX019 (ip), vehicle: steroid suspending solution, evaluated on day 30) was 131 % of control, the T/C (dose: 45.5 mg/kg/injection, schedule: Q01DX009 (ip), vehicle: saline with Tween-80, evaluated on day 5) was 114 and 132 % of control and the T/C (dose: 45.5 mg/kg/injection, schedule: Q01DX009 (ip), vehicle: saline with Tween-80, evaluated on day 60) was 114 and 132 % of control. For the same compound, the T/C (dose: 47.0 mg/kg/injection, schedule: Q01DX015 (ip), vehicle: carboxymethylcellulose (CMC), evaluated on day 5) was 113, 119, 123 % of control, the T/C (dose: 47.0 mg/kg/injection, schedule: Q01DX015 (ip), vehicle: carboxymethylcellulose (CMC), evaluated on day 45) was 113 [9 of 10 alive], 120, 123 % of control and the T/C (dose: 47.5 mg/kg/injection, schedule: Q01DX009 (ip), vehicle: carboxymethylcellulose (CMC)) was 125, 130, 131 % of control. For the same compound, the T/C (dose: 49.0 mg/kg/injection, schedule: Q01DX009 (ip), vehicle: carboxymethylcellulose (CMC)) was 125, 130, 142, 144 % of control, the T/C (dose: 49.5 mg/kg/injection, schedule: Q01DX005 (ip), vehicle: water, evaluated on day 5) was 127 % of control and the T/C (dose: 49.5 mg/kg/injection, schedule: Q01DX005 (ip), vehicle: water, evaluated on day 30) was 127 % of control. The T/C (dose: 50.0 mg/kg/injection, schedule: Q01DX005 (ip), vehicle: other) was 131 % of control, the T/C (dose: 50.0 mg/kg/injection, schedule: Q01DX006 (iv), vehicle: carboxymethylcellulose (CMC)) was 136 % of control and the T/C (dose: 50.0 mg/kg/injection, schedule: Q01DX009 (ip), vehicle: Klucel (hydroxypropylcellulose) (HPC)) was 103, 106, 109 [5 of 6 alive], 132 % of control. The T/C (dose: 50.0 mg/kg/injection, schedule: Q01DX009 (ip), vehicle: other) was 127 % of control, the T/C (dose: 50.0 mg/kg/injection, schedule: Q01DX009 (ip), vehicle: saline with Tween-80) was 127 % of control and the T/C (dose: 50.0 mg/kg/injection, schedule: Q01DX009 (ip), vehicle: water) was 136 and 144 % of control. The T/C (dose: 50.0 mg/kg/injection, schedule: Q01DX010 (ip), vehicle: clinical formulation) was 135 and 137 % of control, the T/C (dose: 50.0 mg/kg/injection, schedule: Q01DX017 (ip), vehicle: carboxymethylcellulose (CMC)) was 135 % of control and the T/C (dose: 50.0 mg/kg/injection, schedule: Q01DX Z (im), vehicle: carboxymethylcellulose (CMC)) was 141 % of control. For the same compound, the T/C (dose: 50.0 mg/kg/injection, schedule: Q01DX Z (ip), vehicle: saline) was 142 % of control, the T/C (dose: 50.0 mg/kg/injection, schedule: Q01DX Z (sc), vehicle: carboxymethylcellulose (CMC)) was 125 and 130 % of control and the T/C (dose: 50.0 mg/kg/injection, schedule: Q#A X034 (ip), vehicle: carboxymethylcellulose (CMC)) was 139 % of control [9 of 10 alive]. The T/C (dose: 53.0 mg/kg/injection, schedule: Q01DX Z (ip), vehicle: carboxymethylcellulose (CMC)) was 126 % of control, the T/C (dose: 53.0 mg/kg/injection, schedule: Q01DX Z (ip), vehicle: saline) was 139 % of control and the T/C (dose: 60.0 mg/kg/injection, schedule: Q01DX001 (ip), vehicle: carboxymethylcellulose (CMC)) was 131 % of control. The T/C (dose: 62.5 mg/kg/injection, schedule: Q01DX005 (ip), vehicle: clinical formulation) was 101, 111 (2×), 115, 119, 128, 136, 138 % of control, the T/C (dose: 65.0 mg/kg/injection, schedule: Q01DX009 (ip), vehicle: steroid suspending solution) was 130 % of control and the T/C (dose: 65.0 mg/kg/injection, schedule: Q01DX019 (ip), vehicle: steroid suspending solution, evaluated on day 5) was 134 % of control. For the same compound, the T/C (dose: 65.0 mg/kg/injection, schedule: Q01DX019 (ip), vehicle: steroid suspending solution, evaluated on day 30) was 131 % of control, the T/C (dose: 65.0 mg/kg/injection, schedule: Q01DX Z (ip), vehicle: steroid suspending solution) was 130 % of control and the T/C (dose: 65.0 mg/kg/injection, schedule: Q## X009 (ip), vehicle: steroid suspending solution, evaluated on day 5) was 143 % of control. The T/C (dose: 65.0 mg/kg/injection, schedule: Q## X009 (ip), vehicle: steroid suspending solution, evaluated on day 30) was 139 % of control, the T/C (dose: 67.0 mg/kg/injection, schedule: Q01DX009 (ip), vehicle: carboxymethylcellulose (CMC)) was 132 % of control and the T/C (dose: 70.0 mg/kg/injection, schedule: Q01DX015 (ip), vehicle: carboxymethylcellulose (CMC), evaluated on day 5) was 123, 126, 135 % of control. For the same compound, the T/C (dose: 70.0 mg/kg/injection, schedule: Q01DX015 (ip), vehicle: carboxymethylcellulose (CMC), evaluated on day 45) was 123, 126, 135 % of control [7 of 8 alive], the T/C (dose: 75.0 mg/kg/injection, schedule: Q01DX Z (ip), vehicle: carboxymethylcellulose (CMC)) was 146 and 147 % of control and the T/C (dose: 75.0 mg/kg/injection, schedule: Q03DX Z (ip), vehicle: carboxymethylcellulose (CMC)) was 130 % of control. The T/C (dose: 80.0 mg/kg/injection, schedule: Q01DX Z (ip), vehicle: carboxymethylcellulose (CMC)) was 147 % of control, the T/C (dose: 80.0 mg/kg/injection, schedule: Q01DX Z (ip), vehicle: saline) was 145 % of control and the T/C (dose: 87.0 mg/kg/injection, schedule: Q07DX Z (ip), vehicle: carboxymethylcellulose (CMC)) was 131 % of control. The T/C (dose: 89.0 mg/kg/injection, schedule: Q01DX005 (ip), vehicle: water, evaluated on day 5) was 129 % of control, the T/C (dose: 89.0 mg/kg/injection, schedule: Q01DX005 (ip), vehicle: water, evaluated on day 30) was 129 % of control and the T/C (dose: 90.0 mg/kg/injection, schedule: Q01DX001 (ip), vehicle: carboxymethylcellulose (CMC)) was 136 % of control. The T/C (dose: 91.0 mg/kg/injection, schedule: Q01DX009 (ip), vehicle: saline with Tween-80, evaluated on day 5) was 126 and 137 % of control, the T/C (dose: 91.0 mg/kg/injection, schedule: Q01DX009 (ip), vehicle: saline with Tween-80, evaluated on day 60) was 126 and 137 % of control and the T/C (dose: 95.0 mg/kg/injection, schedule: Q01DX009 (ip), vehicle: carboxymethylcellulose (CMC)) was 146 % of control. For the same compound, the T/C (dose: 97.0 mg/kg/injection, schedule: Q01DX009 (ip), vehicle: carboxymethylcellulose (CMC)) was 138, 139, 149, 161 % of control, the T/C (dose: 100.0 mg/kg/injection, schedule: Q01DX005 (ip), vehicle: other) was 136 % of control [9 of 10 alive] and the T/C (dose: 100.0 mg/kg/injection, schedule: Q01DX006 (iv), vehicle: carboxymethylcellulose (CMC)) was 146 % of control. The T/C (dose: 100.0 mg/kg/injection, schedule: Q01DX009 (ip), vehicle: Klucel (hydroxypropylcellulose) (HPC), evaluated on day 20) was 160 % of control, the T/C (dose: 100.0 mg/kg/injection, schedule: Q01DX009 (ip), vehicle: Klucel (hydroxypropylcellulose) (HPC), evaluated on day 30) was 93, 103, 104, 124, 134 [5 of 6 alive], 135, 144 (2×), 145, 148, 150, 153, 170 % of control and the T/C (dose: 100.0 mg/kg/injection, schedule: Q01DX009 (ip), vehicle: carboxymethylcellulose (CMC), evaluated on day 5) was 134 % of control. The T/C (dose: 100.0 mg/kg/injection, schedule: Q01DX009 (ip), vehicle: carboxymethylcellulose (CMC), evaluated on day 45) was 134 % of control, the T/C (dose: 100.0 mg/kg/injection, schedule: Q01DX009 (ip), vehicle: other) was 142 and 147 % of control and the T/C (dose: 100.0 mg/kg/injection, schedule: Q01DX009 (ip), vehicle: saline with Tween-80) was 139 % of control. The T/C (dose: 100.0 mg/kg/injection, schedule: Q01DX010 (ip), vehicle: clinical formulation) was 140 % of control, the T/C (dose: 100.0 mg/kg/injection, schedule: Q01DX Z (oral), vehicle: carboxymethylcellulose (CMC)) was 137 % of control and the T/C (dose: 100.0 mg/kg/injection, schedule: Q04DX003 (ip), vehicle: Klucel (hydroxypropylcellulose) (HPC)) was 100, 105, 106, 110, 111 % of control (2×). The T/C (dose: 100.0 mg/kg/injection, schedule: Q04DX003 (ip), vehicle: water) was 126 % of control, the T/C (dose: 100.0 mg/kg/injection, schedule: Q## X009 (ip), vehicle: carboxymethylcellulose (CMC)) was 143 % of control and the T/C (dose: 105.0 mg/kg/injection, schedule: Q01DX015 (ip), vehicle: carboxymethylcellulose (CMC), evaluated on day 5) was 140 % of control.
